Measured values: patent publication EP0279778B1, “New strain belonging to genus Thermus, new beta-galactosidase and process for producing same” (Research Development Corporation of Japan, priority 1987, dated 1988)
Some entries share one result that the patent states for a list of compounds.

How the values were obtained:
[1] = biological target: T1, Caldarilla acidophila β-galactosidase (Enzyme of Precedent 4) (Saccharolobus solfataricus, UniProt P22498); conditions: 100mM each of galactose and glucose; cited from earlier work
T1 sequence (P22498 1-489): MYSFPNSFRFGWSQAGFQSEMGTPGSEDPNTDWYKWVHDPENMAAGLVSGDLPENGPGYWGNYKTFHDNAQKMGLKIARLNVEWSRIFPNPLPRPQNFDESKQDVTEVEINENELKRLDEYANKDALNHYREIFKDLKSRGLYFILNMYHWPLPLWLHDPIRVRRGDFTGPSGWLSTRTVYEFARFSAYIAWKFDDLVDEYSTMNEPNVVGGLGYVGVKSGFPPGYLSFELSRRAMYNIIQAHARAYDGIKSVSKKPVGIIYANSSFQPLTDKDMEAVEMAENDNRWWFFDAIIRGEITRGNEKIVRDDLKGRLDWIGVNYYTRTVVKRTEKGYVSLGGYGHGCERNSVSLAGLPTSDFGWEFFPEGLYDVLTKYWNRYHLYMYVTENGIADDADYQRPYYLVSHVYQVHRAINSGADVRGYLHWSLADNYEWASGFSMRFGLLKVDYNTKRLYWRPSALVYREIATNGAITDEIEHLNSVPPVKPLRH

[2] = tested on: Thermus sp. β-galactosidase (present enzyme; strains ZK-001, ZK-002, ZK-003); test: Inhibition of β-galactosidase activity by reaction products (ONPG hydrolysis); type: biochemical; conditions: 50mM each of galactose and glucose; pH 6.5, 70°C

Row | Compound | Inhibition by reaction product [1] | Inhibition by reaction product [2] | lowering of the enzymatic activity [2] [%]
1 | OC[C@H]1OC(O)[C@H](O)[C@@H](O)[C@H]1O (stereo partly drawn) [galactose] | No inhibition by 100mM each of galactose and glucose | 10% or less inhi-bition by 50mM each of galactose and glucose | ≤ 10
2 | OC[C@H]1OC(O)[C@H](O)[C@@H](O)[C@@H]1O (stereo partly drawn) [glucose] | No inhibition by 100mM each of galactose and glucose | 10% or less inhi-bition by 50mM each of galactose and glucose | ≤ 10
